This note sets out measurements from patent US20090239850A1.

Chains of the proteins cited; added tags and fusions are not shown. Lines headed by an entry give the natural chain unless they say otherwise; changes in a name come on top. Residues count along the entry.
UniProt Q05397, residues 677-1052: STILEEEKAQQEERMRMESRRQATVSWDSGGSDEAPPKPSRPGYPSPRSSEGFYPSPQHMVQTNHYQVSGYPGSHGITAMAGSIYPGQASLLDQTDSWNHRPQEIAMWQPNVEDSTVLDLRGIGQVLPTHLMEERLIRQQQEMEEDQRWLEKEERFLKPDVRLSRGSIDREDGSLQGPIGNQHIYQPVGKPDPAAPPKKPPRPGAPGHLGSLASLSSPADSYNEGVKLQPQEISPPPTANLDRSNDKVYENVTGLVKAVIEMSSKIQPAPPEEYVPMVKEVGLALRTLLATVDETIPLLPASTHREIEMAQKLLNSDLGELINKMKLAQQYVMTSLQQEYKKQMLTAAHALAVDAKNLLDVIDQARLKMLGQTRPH
UniProt P35916: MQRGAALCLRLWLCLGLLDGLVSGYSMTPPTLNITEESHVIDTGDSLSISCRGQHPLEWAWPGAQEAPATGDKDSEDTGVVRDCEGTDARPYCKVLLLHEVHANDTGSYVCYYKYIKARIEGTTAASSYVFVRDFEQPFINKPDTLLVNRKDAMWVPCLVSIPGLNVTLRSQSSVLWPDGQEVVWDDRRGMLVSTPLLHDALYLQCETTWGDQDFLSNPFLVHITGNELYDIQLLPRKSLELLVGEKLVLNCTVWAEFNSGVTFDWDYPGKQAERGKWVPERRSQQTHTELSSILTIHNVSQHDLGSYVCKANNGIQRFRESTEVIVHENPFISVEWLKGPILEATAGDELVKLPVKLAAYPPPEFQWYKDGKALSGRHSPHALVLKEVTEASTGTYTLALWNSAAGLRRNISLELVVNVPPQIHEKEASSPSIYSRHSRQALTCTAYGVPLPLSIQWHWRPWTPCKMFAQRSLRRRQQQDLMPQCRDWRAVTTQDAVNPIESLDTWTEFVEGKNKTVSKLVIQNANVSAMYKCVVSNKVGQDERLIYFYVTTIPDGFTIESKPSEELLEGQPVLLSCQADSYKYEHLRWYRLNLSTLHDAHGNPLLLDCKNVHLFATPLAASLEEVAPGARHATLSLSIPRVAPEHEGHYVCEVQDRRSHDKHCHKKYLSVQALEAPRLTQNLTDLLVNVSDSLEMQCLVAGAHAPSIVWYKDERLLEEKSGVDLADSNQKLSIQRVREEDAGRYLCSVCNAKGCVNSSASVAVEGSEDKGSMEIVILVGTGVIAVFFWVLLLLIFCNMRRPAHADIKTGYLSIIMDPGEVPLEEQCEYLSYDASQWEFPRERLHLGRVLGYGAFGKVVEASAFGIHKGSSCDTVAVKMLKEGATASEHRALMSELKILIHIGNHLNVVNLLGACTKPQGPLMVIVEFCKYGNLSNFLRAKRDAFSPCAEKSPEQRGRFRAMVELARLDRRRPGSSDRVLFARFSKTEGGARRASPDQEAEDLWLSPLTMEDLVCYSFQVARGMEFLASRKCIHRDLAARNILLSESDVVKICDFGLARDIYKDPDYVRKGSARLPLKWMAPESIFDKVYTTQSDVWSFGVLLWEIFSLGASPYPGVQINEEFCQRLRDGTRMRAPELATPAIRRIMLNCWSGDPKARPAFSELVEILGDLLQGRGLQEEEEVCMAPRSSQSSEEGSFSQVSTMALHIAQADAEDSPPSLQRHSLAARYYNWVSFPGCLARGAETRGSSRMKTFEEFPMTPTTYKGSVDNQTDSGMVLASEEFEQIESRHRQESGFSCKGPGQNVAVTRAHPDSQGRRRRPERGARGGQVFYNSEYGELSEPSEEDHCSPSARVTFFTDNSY

Results are given in words; binding and its absence hold for the method and conditions named. Binding can be weak; no strength is given.

This assay addresses C-terminus of FAK (UniProt Q05397). Put plainly: in vitro and in vivo binding studies.

Take “N-terminus of VEGFR-3, containing the peptide identified by phage display (from UniProt P35916) (receptor)”: the binding result was “binds”.
